Laboratory results taken from doi:10.1101/2024.09.05.611419.
Results are given in words; binding and its absence hold for the method and conditions named. For some of these results: Binding seen in cells or lysates may run through a third protein. Some results given as binding are weak or reduced against the parent protein; the word gives no strength. For some of these results: Where a sequence is shown, tags or fusion partners need not be part of it.

Protein sequences, listed by entry. Tags and fused reporters are not part of them. Lines headed by an entry give the natural chain unless they say otherwise; changes in a name come on top. Residues count along the entry.
UniProt P25586: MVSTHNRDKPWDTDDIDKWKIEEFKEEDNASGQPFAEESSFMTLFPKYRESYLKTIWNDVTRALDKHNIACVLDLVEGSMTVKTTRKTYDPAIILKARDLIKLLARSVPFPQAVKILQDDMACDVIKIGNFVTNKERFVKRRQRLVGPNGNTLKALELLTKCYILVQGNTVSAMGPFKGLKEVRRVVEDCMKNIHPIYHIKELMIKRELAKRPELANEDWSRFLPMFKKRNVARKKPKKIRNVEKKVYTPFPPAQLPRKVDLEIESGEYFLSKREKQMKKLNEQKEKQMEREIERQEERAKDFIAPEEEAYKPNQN
Krr1ΔC3-FLAG: residues 1-247 of P25586
UniProt P05756: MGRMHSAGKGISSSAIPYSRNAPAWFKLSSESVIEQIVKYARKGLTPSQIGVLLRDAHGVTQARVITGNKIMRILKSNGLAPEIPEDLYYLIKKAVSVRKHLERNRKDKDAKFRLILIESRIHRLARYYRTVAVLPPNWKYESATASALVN
UniProt P33322: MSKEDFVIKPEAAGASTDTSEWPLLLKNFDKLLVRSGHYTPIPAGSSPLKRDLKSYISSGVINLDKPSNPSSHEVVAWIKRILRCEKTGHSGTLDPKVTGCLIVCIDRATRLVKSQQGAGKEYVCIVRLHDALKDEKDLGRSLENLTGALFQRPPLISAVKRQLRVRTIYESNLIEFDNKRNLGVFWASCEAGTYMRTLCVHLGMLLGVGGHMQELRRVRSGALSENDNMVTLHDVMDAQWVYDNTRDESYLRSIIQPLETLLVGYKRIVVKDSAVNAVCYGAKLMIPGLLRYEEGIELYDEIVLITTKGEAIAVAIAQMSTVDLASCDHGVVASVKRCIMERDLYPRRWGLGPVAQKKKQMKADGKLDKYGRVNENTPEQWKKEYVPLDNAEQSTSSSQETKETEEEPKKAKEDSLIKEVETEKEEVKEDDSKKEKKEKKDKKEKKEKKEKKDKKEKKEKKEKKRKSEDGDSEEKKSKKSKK

Experiments:
[1] = target: T1, protA-TEV-tagged Utp23 (S. cerevisiae) (UniProt Q12339); assay: co-sedimentation
T1 sequence: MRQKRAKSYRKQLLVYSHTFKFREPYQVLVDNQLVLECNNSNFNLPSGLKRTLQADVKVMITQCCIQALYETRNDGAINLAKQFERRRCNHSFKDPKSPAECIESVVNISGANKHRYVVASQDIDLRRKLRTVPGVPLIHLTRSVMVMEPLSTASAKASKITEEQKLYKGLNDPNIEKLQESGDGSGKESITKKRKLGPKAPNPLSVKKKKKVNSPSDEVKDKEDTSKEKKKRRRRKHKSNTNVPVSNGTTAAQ

[2] = target: Krr1ΔC3-FLAG (S. cerevisiae) (UniProt P25586); assay: co-sedimentation
[3] = target: Krr1 (wild type), second bait of the split-tag purification Utp23-Krr1 (S. cerevisiae) (UniProt P25586); assay: co-sedimentation
[4] = target: T1, protA-TEV-tagged Utp23 (S. cerevisiae); assay: cryo-EM structure
[5] = target: T2, Gar1 (S. cerevisiae (endogenous in the yeast strains)) (UniProt P28007); assay: cryo-EM structure
T2 sequence: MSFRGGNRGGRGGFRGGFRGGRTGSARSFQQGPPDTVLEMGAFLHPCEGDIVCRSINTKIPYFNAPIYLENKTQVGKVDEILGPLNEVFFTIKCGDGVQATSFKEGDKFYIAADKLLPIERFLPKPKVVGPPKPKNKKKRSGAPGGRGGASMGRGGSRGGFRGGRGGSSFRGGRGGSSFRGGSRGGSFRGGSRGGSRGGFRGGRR

[6] = target: ribosomal protein uS15 (Rps13) (S. cerevisiae (endogenous in the yeast strains)) (UniProt P05756); assay: cryo-EM structure
[7] = target: T3, protA-TEV-tagged Utp23 (S. cerevisiae), Q12339; assay: co-sedimentation; details: remark: other sources report otherwise
T3 chain: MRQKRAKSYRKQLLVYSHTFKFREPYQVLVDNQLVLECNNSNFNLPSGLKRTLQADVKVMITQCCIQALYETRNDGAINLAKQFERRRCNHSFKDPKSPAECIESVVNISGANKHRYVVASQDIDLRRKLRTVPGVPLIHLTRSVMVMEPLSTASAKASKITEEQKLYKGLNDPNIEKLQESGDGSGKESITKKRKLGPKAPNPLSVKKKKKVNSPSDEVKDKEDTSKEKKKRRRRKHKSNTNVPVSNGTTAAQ

Molecule | binding [1] | binding [2] | binding [3] | other results
ribosomal protein uS15 (Rps13) (from UniProt P05756 1-151) | binds |  |  | 
Cbf5 (from UniProt P33322 1-483) (enzyme) | binds | binds | binds | 
Kri1 (protein, UniProt P42846 1-591) MPRKKSAAKRAREQAKKEAAVPATDTATIKTSETSATTVKPAIEASKSYVPSEDEEEDEEEEEEEDDYGELITDEVENGINQVLDAIKNNKTDKLLDPKVKFFEDPESAAAKLANREGKHKPIYLKDYHRMNILSGDALKEDDEEYEHATVDGKQSFVSQQREEKTQLLNEIKSAFSDEENEESSGDEDDGFLKKKEPSTKKEGKNLPDPTVNEENFLEEFVNQQAWIPKKGDKVISLDLNNNEEDDEEFEDAAEKFENAYNFRYEDPNAAEIISYARSQATLRRSDDSSRRRKREEKRKIKEQIKAEKETALQKKKTKKLNKLTDILEQLTKEYGAEINADMVKKITDTLLKNDFKEEEWDNVVAELFNEEFYQQEGKPTWNEDDEIMGDFYADADGDDQTEEGEVEKEQKEEDEEEGPKRKKSKKEEKLQKKKEKRKVNELVENALEQNKLALIEEVEKEEEERKSRSRTKEEQDLKFRYREVSPESFGLTAREIFAADDTDLNEFIGLKKFAPYRSKELRAKDKRKVMKARRLREWRKKTFKNENGLAPVEAEAGEKDEDTILIPVEKASKSKHKRGHSHKHKGHQKK | binds |  |  | binding [4]: binds; binding [5]: binds; binding [6]: binds
Mrd1 (protein, UniProt Q06106 1-887) MSRIIVKGLPVYLTDDNLREHFTKRLRQKHSHQAVNGSGPDLITDVKILRDRNGESRRFGFIGYRNEEDAFDAVEYFNGSFINTSKIEVSMAKSFADPRVPQPMKEKRREALKRFREKEEKLLQEENRKKKKVDENKHSNIDDEIRKNKQLQEFMETMKPSSQVTSWEKVGIDKSIEDEKLKREEEDSSVQGNSLLAHALALKEENNKDEAPNLVIENESDDEYSALNRNRDEDQEDAGEEEKMISISNLKDTDIGLVNDDANSDEKENEKRRNLAQDEKVSDLDWFKQRRVRIKESEAETREKSSSYATEQNESLDTKKEEQPERAVPQKTDEELAIEKINQTGRLFLRNILYTSKEEDFRKLFSPFGELEEVHVALDTRTGQSKGFAYVLFKDSKNAVNAYVELDKQIFQGRLLHILPGEEKKSHRLDEFDLKNMPLKKQKELKRKAAASRQTFSWNSLYMNQDAVLGSVAAKLGLEKSQLIDAENSSSAVKQALAEAHVIGDVRKYFESKGVDLTKFSQLKSTNQRDDKVILVKNFPFGTTREELGEMFLPYGKLERLLMPPAGTIAIVQFRDTTSARAAFTKLSYKRFKDGIIYLERGPKDCFTKPAEADDLINNTSAKEEENPVEVKPSSNDLMEANKDVTEGSSNAHDEDVIDGPTVSIFIKNLNFSTTNQNLTDRFKVFTGFVVAQVKTKPDPKHQGKTLSMGFGFVEFRTKEQANAVIAAMDGTVIDGHKIQLKLSHRQASQSGNTKTKSNKKSGKIIVKNLPFEATRKDVFELFNSFGQLKSVRVPKKFDKSARGFAFVEFLLPKEAENAMDQLHGVHLLGRRLVMQYAEEDAVDAEEEIARMTKKVRKQVATNEMAALRNGGGRKKLDVDDEENEGF | binds | no binding | binds | 
Nop9 (protein, UniProt P47077 1-666) MGKTKTRGRRHQDKQRKDEFEPSSNSAKEHIQQEESTYNDEAEIKETQPQMFFGVLDREELEYFKQAESTLQLDAFEAPEEKFQFVTSIIEEAKGKELKLVTSQITSKLMERVILECDETQLKDIFQSFNGVFFGLSCHKYASHVLETLFVRSAALVERELLTPSFDNNEKEGPYVTMENMFLFMLNELKPHLKTMMNHQYASHVLRLLILILSSKTLPNSTKANSTLRSKKSKIARKMIDIKDNDDFNKVYQTPESFKSELRDIITTLYKGFTNGAESRSDISQSTITKFREYSVDKVASPVIQLIIQVEGIFDRDRSFWRLVFNTADEKDPKEESFLEYLLSDPVGSHFLENVIGSARLKYVERLYRLYMKDRIVKLAKRDTTGAFVVRALLEHLKEKDVKQILDAVVPELSMLLNSNMDFGTAIINASNKQGGYLRDDVIAQLIQKYYPEKSDAKNILESCLLLSASTLGNTRDDWPTAEERRRSVFLEQLIDYDDKFLNITIDSMLALPEERLIQMCYHGVFSHVVEHVLQTTRVDIIKRKMLLNILSKESVNLACNVYGSHIMDKLWEFTAKLTLYKERIARALVLETEKVKNSIYGRQVWKNWKLELYVRKMWDWKKLIKEQEFEIFPNSKPLQPKPEKHSRERNNSKEGSAFKKQKHYR | binds |  | binds | 
Gar1 (protein, UniProt P28007 1-205) MSFRGGNRGGRGGFRGGFRGGRTGSARSFQQGPPDTVLEMGAFLHPCEGDIVCRSINTKIPYFNAPIYLENKTQVGKVDEILGPLNEVFFTIKCGDGVQATSFKEGDKFYIAADKLLPIERFLPKPKVVGPPKPKNKKKRSGAPGGRGGASMGRGGSRGGFRGGRGGSSFRGGRGGSSFRGGSRGGSFRGGSRGGSRGGFRGGRR | binds |  |  | 
Nhp2 (protein, UniProt P32495 1-156) MGKDNKEHKESKESKTVDNYEARMPAVLPFAKPLASKKLNKKVLKTVKKASKAKNVKRGVKEVVKALRKGEKGLVVIAGDISPADVISHIPVLCEDHSVPYIFIPSKQDLGAAGATKRPTSVVFIVPGSNKKKDGKNKEEEYKESFNEVVKEVQAL | binds | binds | binds | 
Dhr1, Q04217 1-1267 (protein) MGTYRKRFNEKARSGHMAKLKELKRIRNKQFTRQDENDERVENPDSAPAESSTTEPNANAEILEPLTEEEKKMKKRKLQELFTPKESKVSRLKKKRLDKFIEHQLKREERKTIIGKLQDYKIDTSLLTSSKRLGEGRQTKKEEFKEALSLERQGRGNEQTNEILYEEYEPKVWDEYGEGGSSEDDDGEDDFEASFGSMPKPTDNEEKKSSGFIDHRPAKFGGSGLSFGFSNIKVINKESKTPKKKYNWRQRVEMEELKKHGKEDEMDFDTTSEDDDEEEDQEEEDKMHPSENPLEEVESADSETGSEKFDQNDVANEFKDWANQEIKKLEGRDQELVTPTLNIDYKPIIRKEDLDDGLQEAYVPINENSTRKAFYVEVSRSDEIQKARIQLPVFGEEHKIMEAIHHNDVVIICGETGSGKTTQVPQFLYEAGFGAEDSPDYPGMVGITQPRRVAAVSMAERVANELGDHGHKVGYQIRFDSTAKEDTKVKFMTDGVLLREMMHDFKLTKYSSIIIDEAHERNINTDILIGMLSRCVRLRAKLHKENPIEHKKLKLIIMSATLRVSDFSENKTLFPIAPPVLQVDARQFPVSIHFNRRTAFNYTDEAFRKTCKIHQKLPPGAILVFLTGQQEITHMVKRLRKEFPFKKNSKYNKDLETPVSKMGINSKTTDLEAEDIDFSVQVIDQDKFKSAIRYEEDEGNSGNGEDEEDEEEEGFEEVLTEGQTANDPLYVLPLYSLLPTKEQMRVFQKPPQGSRLCIVATNVAETSLTIPGVRYVVDSGRSKERKYNESNGVQSFEVGWVSKASANQRSGRAGRTGPGHCYRLYSSAVFEHDFEQFSKPEILRMPVESIVLQMKSMAIHNIINFPFPTPPDRVALSKAIQLLQYLGALDNKEMITEDGKKMSLFPLSPRFSKMLLVSDEKACLPYIVAIVSALSVGDPFINEFELGINEISRKPNPDENLDDKIREHDESTPGMDPELKKELRSKFYKSRSQFSKLDKFSDVFRLLSVVSAMDYVPKEQKEIFMKKNFLRGKLMEEIVKLRKQLMYIIKSNTSKENIAVVIRNEDLKSDIPSVIQIKLLKQMICAGFVDHVAVRADVLFPDDAKITNRTSIINIPYIPVLATRTPNIEDCFVYIHPTSILNNLGEMPPKYMLYYSLHLGGNNKTRMNTLCDIASTPLANIARKGLLLTYSKPLTGQGLKTVNLSPTERYCYVVPRFGSTVDNDLKIGWDLNPIAVHQKKQKGQWTVIKFITRKGFQTITGEEKEKK |  |  |  | binding [7]: binds
Dhr1 (protein, UniProt Q04217 1-1267) MGTYRKRFNEKARSGHMAKLKELKRIRNKQFTRQDENDERVENPDSAPAESSTTEPNANAEILEPLTEEEKKMKKRKLQELFTPKESKVSRLKKKRLDKFIEHQLKREERKTIIGKLQDYKIDTSLLTSSKRLGEGRQTKKEEFKEALSLERQGRGNEQTNEILYEEYEPKVWDEYGEGGSSEDDDGEDDFEASFGSMPKPTDNEEKKSSGFIDHRPAKFGGSGLSFGFSNIKVINKESKTPKKKYNWRQRVEMEELKKHGKEDEMDFDTTSEDDDEEEDQEEEDKMHPSENPLEEVESADSETGSEKFDQNDVANEFKDWANQEIKKLEGRDQELVTPTLNIDYKPIIRKEDLDDGLQEAYVPINENSTRKAFYVEVSRSDEIQKARIQLPVFGEEHKIMEAIHHNDVVIICGETGSGKTTQVPQFLYEAGFGAEDSPDYPGMVGITQPRRVAAVSMAERVANELGDHGHKVGYQIRFDSTAKEDTKVKFMTDGVLLREMMHDFKLTKYSSIIIDEAHERNINTDILIGMLSRCVRLRAKLHKENPIEHKKLKLIIMSATLRVSDFSENKTLFPIAPPVLQVDARQFPVSIHFNRRTAFNYTDEAFRKTCKIHQKLPPGAILVFLTGQQEITHMVKRLRKEFPFKKNSKYNKDLETPVSKMGINSKTTDLEAEDIDFSVQVIDQDKFKSAIRYEEDEGNSGNGEDEEDEEEEGFEEVLTEGQTANDPLYVLPLYSLLPTKEQMRVFQKPPQGSRLCIVATNVAETSLTIPGVRYVVDSGRSKERKYNESNGVQSFEVGWVSKASANQRSGRAGRTGPGHCYRLYSSAVFEHDFEQFSKPEILRMPVESIVLQMKSMAIHNIINFPFPTPPDRVALSKAIQLLQYLGALDNKEMITEDGKKMSLFPLSPRFSKMLLVSDEKACLPYIVAIVSALSVGDPFINEFELGINEISRKPNPDENLDDKIREHDESTPGMDPELKKELRSKFYKSRSQFSKLDKFSDVFRLLSVVSAMDYVPKEQKEIFMKKNFLRGKLMEEIVKLRKQLMYIIKSNTSKENIAVVIRNEDLKSDIPSVIQIKLLKQMICAGFVDHVAVRADVLFPDDAKITNRTSIINIPYIPVLATRTPNIEDCFVYIHPTSILNNLGEMPPKYMLYYSLHLGGNNKTRMNTLCDIASTPLANIARKGLLLTYSKPLTGQGLKTVNLSPTERYCYVVPRFGSTVDNDLKIGWDLNPIAVHQKKQKGQWTVIKFITRKGFQTITGEEKEKK |  | binds |  | 
